These results are taken from publication PMC7819943, “Rice protein-binding microarrays: a tool to detect cis-acting elements near promoter regions in rice”.

The chains behind the UniProt entries cited, without tags or fusion partners.
UniProt Q0JBA9, entry or part of it: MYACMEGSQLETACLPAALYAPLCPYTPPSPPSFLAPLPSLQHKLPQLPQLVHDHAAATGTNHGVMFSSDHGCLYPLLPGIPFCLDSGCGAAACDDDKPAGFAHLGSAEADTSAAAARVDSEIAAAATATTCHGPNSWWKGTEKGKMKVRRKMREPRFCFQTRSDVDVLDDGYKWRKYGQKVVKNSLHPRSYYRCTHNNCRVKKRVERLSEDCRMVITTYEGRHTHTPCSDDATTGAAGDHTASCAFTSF

The list shows a part of the results.

In the experiment the target is OsWRKY34 (Oryza sativa, UniProt Q0JBA9 1-250). Kind of experiment: protein-binding microarray (RPBM); PBS, 2% BSA, 51.3 ng/ul salmon testes DNA, 50 uM zinc acetate, 200 nM TF, 25 C, 1 h; high values mean tight binding. The conditions noted are these: protein: recombinant; tags: N-terminal polyhistidine and DsRed monomer fusion (pET32a); label: CyDye5-dUTP incorporated in the synthesized complementary strand; 3' TTTTT single-stranded linker to array surface; dsDNA, one strand shown. The method, boiled down: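 Binding signal here means per-feature fluorescence intensity in arbitrary units. The values were read on an Axon 4000B scanner after a custom Agilent array, double-stranded by primer extension with Cy5-dUTP, was incubated with 200 nM protein at 25 °C for 1 h in PBS with 2% BSA, salmon testes DNA and 50 µM zinc acetate, then washed. The proteins were transcription factors with an N-terminal polyhistidine tag and DsRed, expressed in E. coli BL21-CodonPlus and purified on Ni–NTA.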
Turning to “TCACCGCTTCCCTTTCCTGACCCCACCAACTCGCCATCCTCGGAGTCACCTAGTGCAG”, the binding signal was 8180 fluorescence intensity (a.u.).

Take “GACTTAATTTTCTGGATACCATGTTGTCGCGACTTTCGTACGGAGTCACCTAGTGCAG”: the binding signal was 9910 fluorescence intensity (a.u.).

As to “ATCTGGGTTCGGATGCCTATGTTGTACAGTGCCTTACCTTCGGAGTCACCTAGTGCAG”, the binding signal was 8260 fluorescence intensity (a.u.).

In the case of “TGGTTGTGTTCTTGTTGGCTTATACCTTTTTTATGTTTTGCGGAGTCACCTAGTGCAG”, the binding signal is 9260 fluorescence intensity (a.u.).

Take “ATATCTTCTACACTGCACTTTATGAATATCTCATGTCCTGCGGAGTCACCTAGTGCAG”: the binding signal is 8630 fluorescence intensity (a.u.).

In the case of “CAGCTATCCAACCAGTCCTGCAAGTTTTTTTTTTATACAACGGAGTCACCTAGTGCAG”, the binding signal is 8340 fluorescence intensity (a.u.).

“TCCTACATTTTTTTGTTTTCTTTTCCGGCCCTGCTAAATTCGGAGTCACCTAGTGCAG”: the binding signal is 8680 fluorescence intensity (a.u.).

As for “TGCGAAGGGTTCGTTTCGTTTCCACACCACCATTGGTCAACGGAGTCACCTAGTGCAG”, the binding signal is 9310 fluorescence intensity (a.u.).

For “ATTTTAGAGTAGTTTATTTTCCATCATTCGTATTTAAATCCGGAGTCACCTAGTGCAG”, the binding signal was 9030 fluorescence intensity (a.u.).

In the case of “GTTGGTTTTATATATTAGTTGTGGTAGCCTCCATTTTGAACGGAGTCACCTAGTGCAG”, the binding signal is 8120 fluorescence intensity (a.u.).

Turning to “GGTATCCTATATTCAGTCCAAATATCATCGCCGTGTAGATCGGAGTCACCTAGTGCAG”, the binding signal is 8430 fluorescence intensity (a.u.).

As to “ACAACGGCGACCACGACACGAAATTTCCACGCGCGCTTGCCGGAGTCACCTAGTGCAG”, the binding signal is 8930 fluorescence intensity (a.u.).

Turning to “ACAATCTCGACATCTAGCAGCATCCAGTCTAAACACTAAACGGAGTCACCTAGTGCAG”, the binding signal is 8080 fluorescence intensity (a.u.).

Consider “CGCACGCGTGCACGGCTCTCTGCGACCCGCGAACCACCAGCGGAGTCACCTAGTGCAG”, for which the binding signal was 8520 fluorescence intensity (a.u.).

For the sequence “GCAATCTGGGCCGCGCCCATTCCCCTACGGCCCACGAATCCGGAGTCACCTAGTGCAG”, the binding signal is 8170 fluorescence intensity (a.u.).

As to “CTTATTTAGTTGGGGAAAATTTTTGGGTTTGTTTGTCACACGGAGTCACCTAGTGCAG”, the binding signal is 11600 fluorescence intensity (a.u.).

Take “ATTATATCATTTTCACAATATTTGAACCAAAACTCATCAACGGAGTCACCTAGTGCAG”: the binding signal was 8830 fluorescence intensity (a.u.).

Turning to “CCGACCACGACCAGAGCTCGCCTCGCCCTCGCCGATTACCCGGAGTCACCTAGTGCAG”, the binding signal was 11300 fluorescence intensity (a.u.).

Turning to “AGTGTTTGACTTTCTTACTGACCTTACCTGATCTTGAAGCCGGAGTCACCTAGTGCAG”, the binding signal is 16200 fluorescence intensity (a.u.).

As to “GTGGTGTGTGAATATAAATTTTCCCTTCCGCTCACAGAAGCGGAGTCACCTAGTGCAG”, the binding signal was 8240 fluorescence intensity (a.u.).

As to “CACCGCCACCACCCGCACCGCCTCCGCCGCGCGCCCCGACCGGAGTCACCTAGTGCAG”, the binding signal was 9130 fluorescence intensity (a.u.).

With “GGGTCTCACCTCGTCACCGGAGGTTTTTCCAGTGTACCATCGGAGTCACCTAGTGCAG”, the binding signal was 8192 fluorescence intensity (a.u.).

Take “TCCTCGTCGAGATCTCTCTATCTCTCTCTCTGCTCTGCTCCGGAGTCACCTAGTGCAG”: the binding signal was 9690 fluorescence intensity (a.u.).

Turning to “ACCGTTGATTTAGAAAGGGGTTGAGGGGAGGGTAGTAGTACGGAGTCACCTAGTGCAG”, the binding signal is 11600 fluorescence intensity (a.u.).

Consider “TTCTTTTTCGTTTTCTTCTCATTCTTCTTTTTTTTCCTTTCGGAGTCACCTAGTGCAG”, for which the binding signal is 14300 fluorescence intensity (a.u.).

For “TCTTTTTATTTTTTTCTTCCATTGTTCTTGTCCTTCTAATCGGAGTCACCTAGTGCAG”, the binding signal was 8230 fluorescence intensity (a.u.).

“CCTTTTCCTGGTGGAATTTTCTTCTCATACTATTTTCTTGCGGAGTCACCTAGTGCAG”: the binding signal was 11300 fluorescence intensity (a.u.).

As for “GACTCTTGCGATTCCCTCTGTTGAACTTGTTCGTTCTCCTCGGAGTCACCTAGTGCAG”, the binding signal is 10600 fluorescence intensity (a.u.).

Turning to “AATTTATTCTTTTTCCCTTTTTTTTCCTCTGTTTTTCTCACGGAGTCACCTAGTGCAG”, the binding signal was 8730 fluorescence intensity (a.u.).

In the case of “CCCACACCTCTGTTGCTACCTTTTCGTCGTCGTCGTCGCCCGGAGTCACCTAGTGCAG”, the binding signal was 9700 fluorescence intensity (a.u.).

Consider “CCTATGCACGCGCGCTCCCGCGCCTCCGTGCCGTCCCCACCGGAGTCACCTAGTGCAG”, for which the binding signal is 8390 fluorescence intensity (a.u.).

In the case of “ATTGCAATATCTGCAATCCCGTGTACCTTTTGCTGATTTTCGGAGTCACCTAGTGCAG”, the binding signal was 11300 fluorescence intensity (a.u.).

Regarding “AGACCCCAACTCCTAGTAGTTGTATTTGTCGGCTTGCATCCGGAGTCACCTAGTGCAG”, the binding signal is 8590 fluorescence intensity (a.u.).

As to “ATTCCTGTTCTACTCTGAGCCAACCGCCGCAGCGCATGCGCGGAGTCACCTAGTGCAG”, the binding signal was 8540 fluorescence intensity (a.u.).

As for “GTTTGGGGTCGAGATATCCGGTTTTGTAATCCAGAGAAACCGGAGTCACCTAGTGCAG”, the binding signal is 8840 fluorescence intensity (a.u.).

Turning to “ACCACCCTCCTTGTTACAGCTGTGCCGCCTCTTGCTTCCTCGGAGTCACCTAGTGCAG”, the binding signal was 11600 fluorescence intensity (a.u.).

With “ATACCTAATCAACGTGTCATTTTGTGCCCCTATCACGGAACGGAGTCACCTAGTGCAG”, the binding signal is 8110 fluorescence intensity (a.u.).

As to “ACTTGGTTTATTGTATCATCCCGGTCCAAAATCTAGTTTGCGGAGTCACCTAGTGCAG”, the binding signal is 8370 fluorescence intensity (a.u.).

For the sequence “CATTCTTTTTATGTGTTTATGCAGTAGTGCATGGCTTCACCGGAGTCACCTAGTGCAG”, the binding signal is 8090 fluorescence intensity (a.u.).

Take “GAGGGTATTGGGGTACGCTGGTATGAGGATCTACGTAATACGGAGTCACCTAGTGCAG”: the binding signal is 8380 fluorescence intensity (a.u.).

With “GCTCACTCTCACTCTCACTCTTGCATTGCATTGCAATATTCGGAGTCACCTAGTGCAG”, the binding signal is 12600 fluorescence intensity (a.u.).

With “GGGTGTTAGAGCAAAATGTTTTGACTTGCATAGGTGTGTGCGGAGTCACCTAGTGCAG”, the binding signal was 8210 fluorescence intensity (a.u.).
